The results in this text go back to PMC4871701.

By UniProt entry, the sequences of proteins in these tests, tags left out. Where a name states a change or a piece, a line headed by the entry shows the natural chain unless it says otherwise.
UniProt Q9CAJ0: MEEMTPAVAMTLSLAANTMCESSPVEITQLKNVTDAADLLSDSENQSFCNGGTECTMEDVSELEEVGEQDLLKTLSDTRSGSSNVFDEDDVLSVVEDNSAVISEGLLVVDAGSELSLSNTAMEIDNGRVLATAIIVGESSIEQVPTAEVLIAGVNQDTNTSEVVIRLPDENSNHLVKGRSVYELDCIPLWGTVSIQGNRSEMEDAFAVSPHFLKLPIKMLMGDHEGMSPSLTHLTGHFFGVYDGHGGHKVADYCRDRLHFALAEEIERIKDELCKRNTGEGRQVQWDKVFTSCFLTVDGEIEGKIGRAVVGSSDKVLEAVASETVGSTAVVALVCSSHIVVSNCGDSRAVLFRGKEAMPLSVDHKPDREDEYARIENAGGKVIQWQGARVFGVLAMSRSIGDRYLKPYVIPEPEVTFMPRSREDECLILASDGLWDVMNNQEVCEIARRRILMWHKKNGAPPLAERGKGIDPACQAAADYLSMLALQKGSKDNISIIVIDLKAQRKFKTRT

For assay [1], the target named is T1, RopGEF1 (yeast two-hybrid bait fusion) (Arabidopsis thaliana) (UniProt Q93ZY2).
T1 sequence: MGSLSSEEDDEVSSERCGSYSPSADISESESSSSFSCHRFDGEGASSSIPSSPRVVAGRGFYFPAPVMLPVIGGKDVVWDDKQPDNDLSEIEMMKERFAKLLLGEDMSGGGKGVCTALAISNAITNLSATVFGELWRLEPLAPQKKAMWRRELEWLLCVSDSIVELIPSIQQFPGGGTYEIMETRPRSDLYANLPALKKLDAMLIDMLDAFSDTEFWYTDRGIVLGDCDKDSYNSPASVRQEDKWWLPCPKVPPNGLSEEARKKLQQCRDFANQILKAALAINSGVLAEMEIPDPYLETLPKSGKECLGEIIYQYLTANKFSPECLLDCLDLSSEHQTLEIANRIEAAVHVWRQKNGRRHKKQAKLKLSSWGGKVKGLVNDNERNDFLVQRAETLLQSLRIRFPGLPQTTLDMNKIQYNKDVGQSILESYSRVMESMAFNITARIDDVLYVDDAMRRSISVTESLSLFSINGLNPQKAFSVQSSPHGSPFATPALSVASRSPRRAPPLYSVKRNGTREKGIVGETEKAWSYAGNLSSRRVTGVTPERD
The experiment in a line: two-hybrid; yeast PJ69-4A, USER-modified pGBT9 and pGADGH; growth on SD-L-W-H with 3 mM 3-AT for 6 d; ABI1/PYL1 without ABA.

The target in assay [2] is T2, YFP^C-GEF1 (Arabidopsis thaliana) (UniProt Q93ZY2).
T2 sequence: T1 sequence
Description: split reporter; BiFC with YFP^N and YFP^C fusions in N. benthamiana leaves, confocal imaging; fluorescence quantified relative to ROP11-GEF1.

No constants are given. Whether binding was seen depends on the method and setting. Binding calls can cover weak binding; strength is not graded here. Tags and fused reporters may be left off the sequences shown. For some assays here: In cells and extracts the contact can be indirect.

Consider “HAB1 (yeast two-hybrid fusion) (from UniProt Q9CAJ0) (enzyme)”, for which, in assay [1], the binding entry is recorded as “binds weakly”. Turning to “YFP^N-HAB1 (from UniProt Q9CAJ0) (enzyme)”, in assay [2], the binding entry is recorded as “binds weakly”.
